Reference: PubChem BioAssay AID493014 (National Center for Advancing Translational Sciences (NCATS), 2011)
In all, about 340,000 compounds went through this assay and about 170 (0.05%) were called active. The shares of active, inactive and inconclusive entries below differ from those in the screen. The call rests on the fitted dose curve; in most records, active means well fitted inhibition curve with a large enough effect in the signal ratio, with a control signal flat (not every such curve was filed as active); inconclusive means small, poorly fitted or top-dose-only effect, or effect the other way, or a change in a side signal; inactive means flat fitted curve, though single readings scatter; the % refers to the signal ratio. Potencies beside an inconclusive call are fits to weak or partial responses and may not hold up.

assay: qHTS Assay to Find Inhibitors of Chronic Active B-Cell Receptor Signaling; details: ABC-DLBCL IkBa-CBG/CBR reporter, luminescence ratio (green luciferase fused to IkBa over red control in TMD8 lymphoma cells), 4 h; activity change, negative = inhibition: at 46.1 µM (top of the series);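 on activity change, negative = inhibition: plate controls were basal doxycycline-induced cells for no effect and cells given 10 µM MG132 for full effect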
Outline: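 Cell line TMD8 (human ABC DLBCL), stably expressing tet-inducible CBG68-IkBa fusion and CBR; IMDM/0.5% FBS; cpd up to 46 uM; dox induction, 4 h, 37C/5% CO2; dual luminescence; green/red ratio; MG132 control.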
Potency means the concentration at half of the fitted maximal effect.

Structure (SMILES) | Potency | activity change, negative = inhibition
CN1CCN(C2=NC(=O)/C(=C/c3cn[nH]c3-c3ccccc3)S2)CC1 | inconclusive: 20 µM [falling, single point] | –
Cc1[nH]c2c(Cl)cccc2c(=O)c1CN1CCCC1 | – | inactive: -1.43%
CC(C)OC(=O)CSc1nnc(CNc2ccc(Cl)cc2)n1Cc1ccccc1 | – | inconclusive: -26.1%
CCOC(=O)c1c(NC(=O)Cn2nnc(-c3ccc(Cl)cc3)n2)sc(C)c1C | – | inactive: -1.87%
Cc1cccc(NC(=O)/C=C/c2ccc3c(c2)OCO3)n1 | inconclusive: 16.4 µM [falling, partial curve] | –
Cc1cccc(NC(=S)NC2CCN(Cc3ccccc3)CC2)c1C | – | inactive: -3.79%
O=c1[nH]cccc1-c1nc2ccccc2n1Cc1ccccc1F | – | inactive: -0.17%
CCC(=O)NC(c1cc(Cl)c2cccnc2c1O)C1CC1 (stereo not given) | – | inactive
O=C(O)CCc1nc(-c2ccccc2)no1 | inconclusive: 1.41 µM [rising, full curve, poor fit] | –
N=c1ccn(Cc2ccc(Cl)cc2Cl)cc1 | – | inactive: -3.97%
CCn1cc(/C=C/C(=O)c2ccc(O)cc2)c(C)n1 | inconclusive: 28.2 µM [falling, single point] | –
COc1ccccc1Nc1nc(NCc2ccco2)nc(N)c1[N+](=O)[O-] | – | inconclusive: 6%
Cc1c(C(=O)O)cccc1-c1ccc(/C=N/n2cnnc2)o1 | – | inconclusive: 4.89%
CC1CN=C(NC(=O)c2cccc([N+](=O)[O-])c2)S1 (stereo not given) | – | inconclusive: 1.95%
O=C(COc1ccccc1)N/N=C/c1ccc([N+](=O)[O-])o1 | – | inconclusive: 10.6%
COC(=O)C1=C(CSc2nc3ccccc3o2)NC(=O)NC1c1cc(C)ccc1C (stereo not given) | – | inconclusive: 20.9%
O=C(/C=C/Sc1ccccc1)c1ccccc1 | inconclusive: 14.6 µM [falling, partial curve] | –
O=C(OCc1cccc([N+](=O)[O-])c1)c1cccnc1Cl | – | inconclusive: -3.65%
CCN(CC)c1ccc(NC(=O)COc2ccccc2C#N)cc1S(=O)(=O)Nc1ccc(OC)cc1 | inconclusive: 2.06 µM [falling, partial curve] | –
COc1cc2c(cc1NC(=O)CN(C)Cc1cccc(OC)c1OC)oc1ccccc12 | – | inconclusive: 10.8%
COc1ccc(-c2[nH]ncc2CN2CCC(O)(c3ccc(Cl)cc3)CC2)cc1 | inconclusive: 35.5 µM [falling, partial curve, poor fit] | –
Nc1c(C(=O)N/N=C/c2ccccc2)cnn1-c1ccccc1 | inconclusive: 28.2 µM [falling, single point] | –
N#Cc1c(N)n(CCNC(=O)c2ccc(Cl)cc2)c2nc3ccccc3nc12 | – | inactive: 0.0892%
O=S(=O)(CCSc1ccc(C(F)(F)F)cn1)c1ccc(Cl)cc1 | inconclusive: 12.6 µM [falling, partial curve, poor fit] | –
COc1ccc(N/N=C(/C(C)=O)N2CCCc3ccccc32)cc1 | – | inconclusive: -4.87%
CC(=O)c1c(C)[nH]c(C(=O)OCc2c(F)cccc2Cl)c1C | – | inconclusive: 7.79%
CNC(=O)N/N=C(\N)c1ccccn1 | inconclusive: 31.6 µM [rising, single point] | –

Structure (SMILES) | Potency | activity change, negative = inhibition
O=C(CCC(=O)OCC(=O)c1ccc(Cl)cc1Cl)Nc1cccc2cccnc12 | inconclusive: 14.1 µM [falling, single point] | –
NS(=O)(=O)c1ccc(CNC(=O)c2cccc(Oc3ccccc3)c2)cc1 | inconclusive: 35.5 µM [falling, single point] | –
COc1ccc(C(CNC(=O)c2cccn2C)N2CCOCC2)cc1 (stereo not given) | – | inconclusive: -0.0761%
CN(C)/C=C1\Oc2ccc3ccccc3c2C1=O | inconclusive: 35.5 µM [falling, single point] | –
CC(=O)Oc1ccc(C(=O)Nc2cc(NC(=O)c3ccc(OC(C)=O)cc3)cc(C(=O)NC(C)(C)C)c2)cc1 | inconclusive: 18.4 µM [falling, single point] | –
CCOC(=O)c1c(N2C(=O)C3C4C=CC(C4)C3C2=O)sc2c1CCC(C)C2 (stereo not given) | – | inconclusive: 16.3%
CCN(CC)c1ccc(/C=N/NC(=O)Cc2ccc(OC)c(OC)c2)cc1 | inconclusive: 11.2 µM [falling, partial curve] | –
COc1ccc(NC(=O)c2cccc(N3C(=O)C4C5C=CC(C5)C4C3=O)c2)c(OC)c1 (stereo not given) | inconclusive: 35.5 µM [rising, single point] | –
Cc1ccc2sc(-c3ccc(NC(=O)CCN4C(=O)c5ccccc5C4=O)cc3)nc2c1 | – | inconclusive: 10.5%
Cc1csc(NC(=O)CSc2ccc(-c3ccccc3)nn2)n1 | – | inconclusive: -9.81%
C[C@H]1CN([C@@H](C)CO)C(=O)Cc2cc(NC(=O)C3CC3)ccc2O[C@H]1CN(C)Cc1ccc(C(=O)O)cc1 | – | inconclusive: -0.417%
CCS(=O)(=O)Nc1ccc2c(c1)N(C(C)=O)c1ccccc1CC2 | – | inconclusive: 7.9%
Nc1nc(NCCO)nc(NCc2ccccc2)c1[N+](=O)[O-] | – | inconclusive: -17.9%
NC(=O)c1cccc(S(=O)(=O)N2CCCCC2)c1 | – | inconclusive: 9.88%
FC(F)(F)c1cccc(N2CCN(CC3CC=CCC3)CC2)c1 (stereo not given) | – | inactive: 6.08%
COc1ccc(-n2c(NCCN(C)C)nc3sc4c(c3c2=O)CCCCC4)cc1 | – | inactive: 22.7%
C=CCOc1ccc2nc(NC(=O)OC)[nH]c2c1 | – | inconclusive: -8.39%
S=c1[nH]cnc2sc(-c3ccccc3)cc12 | inconclusive: 3.16 µM [falling, full curve, poor fit] | –
CCOC(=O)Cn1nnnc1CN(Cc1ccccc1)Cc1cc2cc(CC)ccc2[nH]c1=O | – | inactive: 4.75%
CCC(C)(C)NC(=O)CN(C(=O)CCC(=O)Nc1cc(C)ccn1)c1ccc2c(c1)OCO2 | – | inconclusive: 5.66%
COc1cc(/C=C2\SC(=N)N(c3ccc(F)cc3)C2=O)ccc1O | – | inconclusive: 0.443%
C=CCn1cccc(C(=O)Nc2ccc(C)c(Cl)c2)c1=O | – | inactive: 1.4%
Cc1ccc(Nc2nc(N)nc(CN3CCN(Cc4ccc5c(c4)OCO5)CC3)n2)c(C)c1 | – | inconclusive: -1.26%
COCCc1ncc(CN2CCCC(C(=O)Nc3cccc(-c4cccc(C)c4)c3)C2)cn1 (stereo not given) | – | inconclusive: -23.1%
Fc1cccc(NC(=S)NC2CCCCCCC2)c1 | – | inconclusive: -5.7%
Cn1c(-c2ccccc2)c(CCO)c2ccccc21 | – | inactive: 2.16%
N=c1c2c(ncn1Cc1ccco1)Oc1ccc3ccccc3c1C2c1ccccc1 (stereo not given) | – | inconclusive: 17.4%

Structure (SMILES) | Potency | activity change, negative = inhibition
COc1ccc(CCn2c(=O)[nH]c3cc(C(=O)N4CCN(c5ccccn5)CC4)ccc3c2=O)cc1OC | – | inactive: 1.13%
COc1cc(/C=N/NC(=O)c2csc3c2CCCC3)ccc1OCCN1CCOCC1 | – | inactive: 4.92%
O=C(Nc1cccc2ccccc12)OCc1cncs1 | – | inconclusive: -13.3%
O=C(CN1C(=O)/C(=C/c2cccc(Cl)c2)SC1=S)NC1C=CS(=O)(=O)C1 (stereo not given) | inconclusive: 22.4 µM [falling, partial curve, poor fit] | –
COc1ccc(CNc2nc3nc(C)c(Cl)c(C)n3n2)cc1 | inconclusive: 10 µM [falling, partial curve, poor fit] | –
OC(COCC(F)(F)C(F)(F)C(F)(F)C(F)F)Cn1c2ccccc2c2ccccc21 (stereo not given) | inconclusive: 16.4 µM [rising, partial curve, poor fit] | –
Cn1cnnc1SCc1ccccc1 | – | inconclusive: 8.34%
O=C(N/N=C/C1CC2C=CC1C2)c1ccccc1O (stereo not given) | – | inconclusive: 313%
Cc1ccc(C(=O)N/N=C\c2cccc(OC(=O)c3cccc(F)c3)c2)cn1 | – | inconclusive: -9.97%
O=C1C=CCC(/C=C/c2ccccc2)O1 (stereo not given) | inconclusive: 6.51 µM [falling, partial curve, poor fit] | –
CC1CN(c2nc3c(c(=O)n(Cc4ccc(Cl)c(Cl)c4)c(=O)n3C)n2C)CC(C)O1 (stereo not given) | – | inconclusive: 16.2%
CCc1ccc(C(=O)c2cnc3ccc(OC)cc3c2N2CCN(CC)CC2)cc1 | – | inactive: -23.3%
CC1CCCN(CCCOc2ccc(Br)cc2Cl)C1 (stereo not given) | inconclusive: 35.5 µM [falling, single point] | –
CC(C)(C)c1ccc(C(=O)N2CCC(C(=O)c3ccccc3)CC2)cc1 | – | inconclusive: -3.49%
O=C(NCCS(=O)(=O)N1CCN(c2cccc(Cl)c2)CC1)c1ccco1 | – | inactive: -7.97%
O=C(NCCc1ccccn1)c1cc(-c2cccc3ccccc23)nc2ccccc12 | – | inactive: -0.84%
Cn1c(N=Nc2ccccc2)nc2ccccc21 | inconclusive: 6.51 µM [cytotoxic, single point] | –
Cc1ccc(C(=O)Nc2nc3ccccc3s2)s1 | – | inconclusive: 455%
COc1ccc([N+](=O)[O-])cc1C(=O)Nc1ccc(Cc2ccncc2)cc1 | – | inconclusive: 20.2%
CNc1ccccc1C(=O)OCC(=O)N1CCN(c2ccc(OC)cc2)CC1 | inconclusive: 31.6 µM [falling, partial curve, poor fit] | –
COc1ccccc1NC(=O)/C(=C/c1cccs1)NC(=O)c1ccco1 | – | inactive: -1.23%
CC(=O)c1c(C)nc(-c2ccccc2)nc1NC(=O)Cc1ccccc1 | – | inconclusive: 2.48%
NC(=O)c1ccc(SCC(=O)OCC(=O)NC2CCCCCCC2)c([N+](=O)[O-])c1 | – | inconclusive: -11.8%
OCCNc1nc(Nc2ccc(O)cc2)nc2ccccc12 | – | inconclusive: 12.7%
CN(C)c1ccnc2sc(C(=O)c3ccccc3)c(N)c12 | inconclusive: 23.1 µM [falling, partial curve, poor fit] | –
COc1ccc(NC(=S)Nc2ccc3snnc3c2)cc1 | – | inconclusive: 18.9%

As a short view, part of the list above:
Structure (SMILES) | Potency | activity change, negative = inhibition
Cc1ccc(C(=O)Nc2nc3ccccc3s2)s1 | – | inconclusive: 455%
COc1ccc([N+](=O)[O-])cc1C(=O)Nc1ccc(Cc2ccncc2)cc1 | – | inconclusive: 20.2%
CNc1ccccc1C(=O)OCC(=O)N1CCN(c2ccc(OC)cc2)CC1 | inconclusive: 31.6 µM [falling, partial curve, poor fit] | –
